In PMC3322156:
No constants are given. Whether binding was seen depends on the method and setting. For some assays here: In cells and extracts the contact can be indirect. Some entries that bind do so weakly or less than the wild type.

Protein sequences, listed by entry. Tags and fused reporters are not part of them. Lines headed by an entry give the natural chain unless they say otherwise; changes in a name come on top.
UniProt Q8CHI8: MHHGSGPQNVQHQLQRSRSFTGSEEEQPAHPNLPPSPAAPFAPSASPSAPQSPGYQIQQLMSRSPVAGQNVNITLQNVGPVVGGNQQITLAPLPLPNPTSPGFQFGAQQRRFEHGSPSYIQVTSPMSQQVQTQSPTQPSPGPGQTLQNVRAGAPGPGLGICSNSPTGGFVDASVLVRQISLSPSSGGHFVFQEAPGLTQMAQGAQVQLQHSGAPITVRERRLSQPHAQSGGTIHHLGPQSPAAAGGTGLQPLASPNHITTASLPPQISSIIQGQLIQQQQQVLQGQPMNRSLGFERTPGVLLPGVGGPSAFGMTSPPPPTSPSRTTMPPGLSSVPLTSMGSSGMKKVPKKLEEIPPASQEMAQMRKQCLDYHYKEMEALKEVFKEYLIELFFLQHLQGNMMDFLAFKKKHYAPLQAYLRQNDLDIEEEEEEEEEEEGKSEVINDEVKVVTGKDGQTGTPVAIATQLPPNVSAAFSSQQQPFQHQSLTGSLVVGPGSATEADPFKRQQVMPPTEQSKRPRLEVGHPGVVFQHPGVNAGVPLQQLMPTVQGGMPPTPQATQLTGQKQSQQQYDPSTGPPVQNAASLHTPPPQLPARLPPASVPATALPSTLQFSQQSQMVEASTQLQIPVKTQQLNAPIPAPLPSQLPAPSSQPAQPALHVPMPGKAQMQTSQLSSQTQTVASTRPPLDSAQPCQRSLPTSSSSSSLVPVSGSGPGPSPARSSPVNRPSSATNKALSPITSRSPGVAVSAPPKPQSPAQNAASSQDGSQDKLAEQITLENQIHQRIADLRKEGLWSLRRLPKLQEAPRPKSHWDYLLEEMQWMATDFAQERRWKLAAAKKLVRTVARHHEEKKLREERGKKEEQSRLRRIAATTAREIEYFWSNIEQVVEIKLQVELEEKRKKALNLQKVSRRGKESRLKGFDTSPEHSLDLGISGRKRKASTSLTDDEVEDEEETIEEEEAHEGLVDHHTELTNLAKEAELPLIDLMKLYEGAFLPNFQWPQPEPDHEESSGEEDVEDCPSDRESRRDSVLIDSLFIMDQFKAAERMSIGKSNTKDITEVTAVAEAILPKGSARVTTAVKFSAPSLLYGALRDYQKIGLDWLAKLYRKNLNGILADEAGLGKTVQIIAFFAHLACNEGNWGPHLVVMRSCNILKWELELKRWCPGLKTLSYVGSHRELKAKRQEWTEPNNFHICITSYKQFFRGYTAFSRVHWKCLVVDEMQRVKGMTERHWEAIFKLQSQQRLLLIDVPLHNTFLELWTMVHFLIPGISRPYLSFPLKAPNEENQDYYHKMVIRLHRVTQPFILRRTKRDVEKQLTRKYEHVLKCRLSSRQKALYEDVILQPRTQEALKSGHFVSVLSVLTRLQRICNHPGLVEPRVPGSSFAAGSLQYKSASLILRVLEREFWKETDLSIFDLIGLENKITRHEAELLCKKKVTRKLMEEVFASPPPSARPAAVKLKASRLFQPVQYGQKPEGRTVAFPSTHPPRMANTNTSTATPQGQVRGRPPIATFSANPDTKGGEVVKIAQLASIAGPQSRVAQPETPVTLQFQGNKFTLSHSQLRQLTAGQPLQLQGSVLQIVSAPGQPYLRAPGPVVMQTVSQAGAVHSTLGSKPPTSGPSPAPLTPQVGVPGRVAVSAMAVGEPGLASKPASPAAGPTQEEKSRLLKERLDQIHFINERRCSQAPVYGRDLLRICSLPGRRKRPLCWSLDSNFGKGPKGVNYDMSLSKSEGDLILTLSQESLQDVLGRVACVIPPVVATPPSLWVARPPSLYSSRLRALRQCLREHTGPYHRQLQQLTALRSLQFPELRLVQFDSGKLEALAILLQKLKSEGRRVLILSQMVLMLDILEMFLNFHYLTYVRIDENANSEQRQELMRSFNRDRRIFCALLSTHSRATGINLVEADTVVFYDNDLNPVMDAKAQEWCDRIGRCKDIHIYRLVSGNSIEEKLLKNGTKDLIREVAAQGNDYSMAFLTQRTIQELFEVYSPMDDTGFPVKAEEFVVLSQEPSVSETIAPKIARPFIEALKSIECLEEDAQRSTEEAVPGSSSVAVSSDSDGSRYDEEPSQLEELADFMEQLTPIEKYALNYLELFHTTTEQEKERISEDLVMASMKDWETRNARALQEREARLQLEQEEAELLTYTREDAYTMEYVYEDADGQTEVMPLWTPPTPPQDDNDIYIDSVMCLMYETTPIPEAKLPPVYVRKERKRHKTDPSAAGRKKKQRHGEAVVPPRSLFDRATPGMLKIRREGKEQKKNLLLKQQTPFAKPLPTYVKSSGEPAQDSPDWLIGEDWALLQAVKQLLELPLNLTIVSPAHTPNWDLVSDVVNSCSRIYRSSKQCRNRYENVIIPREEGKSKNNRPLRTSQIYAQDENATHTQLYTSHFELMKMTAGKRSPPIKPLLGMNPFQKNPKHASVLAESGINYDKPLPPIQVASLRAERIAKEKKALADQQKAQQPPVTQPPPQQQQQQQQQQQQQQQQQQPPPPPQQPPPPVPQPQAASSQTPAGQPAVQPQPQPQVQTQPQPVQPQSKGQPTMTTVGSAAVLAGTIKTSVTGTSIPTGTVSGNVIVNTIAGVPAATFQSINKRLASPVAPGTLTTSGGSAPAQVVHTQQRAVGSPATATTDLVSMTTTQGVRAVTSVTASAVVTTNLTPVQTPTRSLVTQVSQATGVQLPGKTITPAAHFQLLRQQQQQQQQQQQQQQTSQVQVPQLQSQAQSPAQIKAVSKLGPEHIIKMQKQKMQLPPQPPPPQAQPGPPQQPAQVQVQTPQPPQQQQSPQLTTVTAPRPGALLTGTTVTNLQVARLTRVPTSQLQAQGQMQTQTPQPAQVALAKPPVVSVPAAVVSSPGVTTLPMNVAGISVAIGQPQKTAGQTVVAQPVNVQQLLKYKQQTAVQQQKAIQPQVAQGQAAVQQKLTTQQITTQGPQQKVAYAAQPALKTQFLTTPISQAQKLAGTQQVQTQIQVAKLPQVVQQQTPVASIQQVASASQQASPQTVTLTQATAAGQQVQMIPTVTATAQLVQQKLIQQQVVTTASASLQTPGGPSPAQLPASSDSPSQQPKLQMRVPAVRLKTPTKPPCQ
UniProt Q9CQJ4: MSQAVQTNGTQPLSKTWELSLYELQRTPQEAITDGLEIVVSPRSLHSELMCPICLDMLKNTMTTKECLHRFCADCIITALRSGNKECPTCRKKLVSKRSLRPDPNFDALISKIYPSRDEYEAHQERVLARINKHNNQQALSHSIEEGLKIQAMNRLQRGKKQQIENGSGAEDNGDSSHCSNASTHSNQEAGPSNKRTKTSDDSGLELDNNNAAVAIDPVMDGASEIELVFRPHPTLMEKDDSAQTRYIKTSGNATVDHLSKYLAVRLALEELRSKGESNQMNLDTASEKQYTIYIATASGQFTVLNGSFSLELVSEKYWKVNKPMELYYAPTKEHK
UniProt Q9JI44: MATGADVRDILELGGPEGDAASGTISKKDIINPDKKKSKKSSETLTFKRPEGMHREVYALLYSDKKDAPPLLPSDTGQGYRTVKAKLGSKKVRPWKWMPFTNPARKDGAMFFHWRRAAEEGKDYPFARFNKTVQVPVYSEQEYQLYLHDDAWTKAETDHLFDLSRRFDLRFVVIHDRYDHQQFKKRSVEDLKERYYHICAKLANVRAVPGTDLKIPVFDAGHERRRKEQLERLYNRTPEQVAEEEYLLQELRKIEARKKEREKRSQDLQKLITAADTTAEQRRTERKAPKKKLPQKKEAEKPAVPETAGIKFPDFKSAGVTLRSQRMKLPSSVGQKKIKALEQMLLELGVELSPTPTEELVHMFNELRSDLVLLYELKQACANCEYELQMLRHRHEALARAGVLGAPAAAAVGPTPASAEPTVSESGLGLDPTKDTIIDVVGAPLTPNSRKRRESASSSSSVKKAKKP

Columns and labels:
[1] = target: p400 (mouse (endogenous in ESCs)) (UniProt Q8CHI8); assay: SEC; 1 mg WT E14 ESC nuclear extract treated with RNase A and Benzonase, Superose 6 10/300 GL in BC200 buffer; every other 0.5 ml fraction TCA precipitated and immunoblotted
[2] = target: Ring1BI53A (UniProt Q9CQJ4); assay: co-IP; IP of Ring1B from nuclear extracts of WT ESCs and of Ring1B-/- ESCs rescued with full length Ring1B or Ring1BI53A; 12% SDS-PAGE, immunoblot with anti-Dmap1
[3] = target: Ring1B (mouse (endogenous in ESCs)) (UniProt Q9CQJ4); assay: as above
[4] = target: full length Ring1B (rescue) (UniProt Q9CQJ4); assay: as above
[5] = target: Ring1B (mouse (endogenous in ESCs)) (UniProt Q9CQJ4); assay: sucrose gradient sedimentation; 1.5 mg WT (OS25) ESC nuclear extract on a 10-50% sucrose gradient in BC100 buffer, SW41 41 000 rpm 28 h at 4 C; fractions immunoblotted for Ring1B and Dmap1

binding [1]: binds
binding [2]: binds
binding [3]: binds
binding [4]: binds
binding [5]: binds
Substance: Dmap1 (from UniProt Q9JI44 1-468)
